Laboratory results from the supplement of paper PMC10849652.
This is one part of the list.

By UniProt entry, the sequences of proteins in these tests, tags left out. Where a name states a change or a piece, a line headed by the entry shows the natural chain unless it says otherwise.
UniProt O00311: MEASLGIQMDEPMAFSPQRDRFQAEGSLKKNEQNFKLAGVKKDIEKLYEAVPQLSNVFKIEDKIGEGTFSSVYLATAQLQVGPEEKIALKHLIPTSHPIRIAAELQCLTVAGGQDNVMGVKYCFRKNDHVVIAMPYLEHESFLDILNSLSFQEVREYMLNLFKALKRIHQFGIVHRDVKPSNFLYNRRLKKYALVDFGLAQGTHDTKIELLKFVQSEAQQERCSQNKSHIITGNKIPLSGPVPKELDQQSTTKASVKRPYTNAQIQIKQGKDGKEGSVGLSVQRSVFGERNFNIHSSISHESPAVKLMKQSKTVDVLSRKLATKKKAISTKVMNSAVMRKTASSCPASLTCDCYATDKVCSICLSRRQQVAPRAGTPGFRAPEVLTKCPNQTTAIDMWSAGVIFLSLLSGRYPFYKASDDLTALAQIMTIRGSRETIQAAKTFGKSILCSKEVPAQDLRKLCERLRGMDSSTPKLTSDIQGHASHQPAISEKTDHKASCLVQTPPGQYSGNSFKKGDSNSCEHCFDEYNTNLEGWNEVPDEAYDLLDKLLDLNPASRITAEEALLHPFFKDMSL
UniProt Q9Y6A4: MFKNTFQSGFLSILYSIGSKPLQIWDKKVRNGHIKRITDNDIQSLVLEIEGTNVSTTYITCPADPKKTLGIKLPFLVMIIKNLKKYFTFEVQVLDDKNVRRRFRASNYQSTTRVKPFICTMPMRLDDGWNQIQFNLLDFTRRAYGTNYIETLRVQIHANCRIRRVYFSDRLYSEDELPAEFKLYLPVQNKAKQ
UniProt Q8N960: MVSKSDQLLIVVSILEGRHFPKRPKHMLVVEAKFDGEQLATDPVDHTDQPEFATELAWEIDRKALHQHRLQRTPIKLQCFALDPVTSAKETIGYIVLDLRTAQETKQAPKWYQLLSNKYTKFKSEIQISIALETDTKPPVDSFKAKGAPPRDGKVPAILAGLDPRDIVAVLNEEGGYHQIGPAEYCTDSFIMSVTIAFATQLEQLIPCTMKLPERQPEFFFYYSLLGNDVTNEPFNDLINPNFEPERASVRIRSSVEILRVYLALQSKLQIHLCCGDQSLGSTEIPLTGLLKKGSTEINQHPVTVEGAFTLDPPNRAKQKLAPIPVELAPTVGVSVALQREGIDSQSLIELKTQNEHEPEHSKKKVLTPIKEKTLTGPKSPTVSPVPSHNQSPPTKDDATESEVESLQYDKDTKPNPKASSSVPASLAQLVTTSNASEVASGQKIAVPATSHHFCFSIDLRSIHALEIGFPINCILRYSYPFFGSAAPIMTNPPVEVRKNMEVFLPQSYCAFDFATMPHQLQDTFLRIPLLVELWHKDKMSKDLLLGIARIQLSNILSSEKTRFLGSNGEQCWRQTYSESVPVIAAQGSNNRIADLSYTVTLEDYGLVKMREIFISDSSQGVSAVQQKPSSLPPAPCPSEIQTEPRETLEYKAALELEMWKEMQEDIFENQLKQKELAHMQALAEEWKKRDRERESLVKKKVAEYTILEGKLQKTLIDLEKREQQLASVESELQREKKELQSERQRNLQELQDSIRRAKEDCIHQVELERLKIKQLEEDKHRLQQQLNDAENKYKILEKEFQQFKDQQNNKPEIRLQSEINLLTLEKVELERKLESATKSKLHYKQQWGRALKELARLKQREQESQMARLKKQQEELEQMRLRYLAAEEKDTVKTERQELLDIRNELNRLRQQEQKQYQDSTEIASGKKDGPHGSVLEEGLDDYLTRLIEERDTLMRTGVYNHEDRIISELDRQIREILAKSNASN
UniProt P42773: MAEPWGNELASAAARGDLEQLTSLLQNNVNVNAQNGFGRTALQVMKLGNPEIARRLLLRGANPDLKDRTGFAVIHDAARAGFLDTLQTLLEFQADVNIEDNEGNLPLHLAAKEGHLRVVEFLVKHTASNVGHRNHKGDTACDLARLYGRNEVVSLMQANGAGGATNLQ
UniProt Q9Y232: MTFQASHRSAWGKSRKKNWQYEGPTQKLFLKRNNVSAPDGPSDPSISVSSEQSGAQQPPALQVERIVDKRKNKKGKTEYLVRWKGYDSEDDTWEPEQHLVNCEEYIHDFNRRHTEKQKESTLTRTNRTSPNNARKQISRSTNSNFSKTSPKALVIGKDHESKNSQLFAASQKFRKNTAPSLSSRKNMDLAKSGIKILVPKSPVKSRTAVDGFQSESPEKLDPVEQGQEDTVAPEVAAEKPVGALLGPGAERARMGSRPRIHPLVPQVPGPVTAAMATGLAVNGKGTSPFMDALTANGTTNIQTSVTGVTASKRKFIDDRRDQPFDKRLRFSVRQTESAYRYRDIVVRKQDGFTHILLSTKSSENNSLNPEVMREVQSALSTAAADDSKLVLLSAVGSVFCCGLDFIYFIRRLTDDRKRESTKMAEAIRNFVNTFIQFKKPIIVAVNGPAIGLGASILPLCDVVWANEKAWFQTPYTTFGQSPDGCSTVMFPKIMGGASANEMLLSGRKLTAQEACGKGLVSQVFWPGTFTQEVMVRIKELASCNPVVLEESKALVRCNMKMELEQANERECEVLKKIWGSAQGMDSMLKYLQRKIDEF
UniProt Q9Y5P4: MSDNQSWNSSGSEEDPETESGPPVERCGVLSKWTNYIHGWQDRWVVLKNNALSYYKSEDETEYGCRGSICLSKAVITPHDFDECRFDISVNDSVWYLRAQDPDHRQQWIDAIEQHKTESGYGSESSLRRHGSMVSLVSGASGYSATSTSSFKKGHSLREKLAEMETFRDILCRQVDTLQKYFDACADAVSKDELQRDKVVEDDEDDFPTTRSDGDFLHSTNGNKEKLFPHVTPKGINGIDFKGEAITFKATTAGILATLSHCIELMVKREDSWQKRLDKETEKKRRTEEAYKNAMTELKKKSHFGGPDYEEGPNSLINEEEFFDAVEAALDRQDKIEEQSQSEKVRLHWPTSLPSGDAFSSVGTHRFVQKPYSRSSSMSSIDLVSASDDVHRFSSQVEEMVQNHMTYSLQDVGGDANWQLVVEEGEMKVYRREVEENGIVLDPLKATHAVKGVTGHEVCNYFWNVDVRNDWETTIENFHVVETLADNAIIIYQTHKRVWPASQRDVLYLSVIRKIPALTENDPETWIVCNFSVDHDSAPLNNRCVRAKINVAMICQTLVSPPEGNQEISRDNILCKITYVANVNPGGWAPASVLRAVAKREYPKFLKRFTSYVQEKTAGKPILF
UniProt Q9NYV4, whole entry, looked up: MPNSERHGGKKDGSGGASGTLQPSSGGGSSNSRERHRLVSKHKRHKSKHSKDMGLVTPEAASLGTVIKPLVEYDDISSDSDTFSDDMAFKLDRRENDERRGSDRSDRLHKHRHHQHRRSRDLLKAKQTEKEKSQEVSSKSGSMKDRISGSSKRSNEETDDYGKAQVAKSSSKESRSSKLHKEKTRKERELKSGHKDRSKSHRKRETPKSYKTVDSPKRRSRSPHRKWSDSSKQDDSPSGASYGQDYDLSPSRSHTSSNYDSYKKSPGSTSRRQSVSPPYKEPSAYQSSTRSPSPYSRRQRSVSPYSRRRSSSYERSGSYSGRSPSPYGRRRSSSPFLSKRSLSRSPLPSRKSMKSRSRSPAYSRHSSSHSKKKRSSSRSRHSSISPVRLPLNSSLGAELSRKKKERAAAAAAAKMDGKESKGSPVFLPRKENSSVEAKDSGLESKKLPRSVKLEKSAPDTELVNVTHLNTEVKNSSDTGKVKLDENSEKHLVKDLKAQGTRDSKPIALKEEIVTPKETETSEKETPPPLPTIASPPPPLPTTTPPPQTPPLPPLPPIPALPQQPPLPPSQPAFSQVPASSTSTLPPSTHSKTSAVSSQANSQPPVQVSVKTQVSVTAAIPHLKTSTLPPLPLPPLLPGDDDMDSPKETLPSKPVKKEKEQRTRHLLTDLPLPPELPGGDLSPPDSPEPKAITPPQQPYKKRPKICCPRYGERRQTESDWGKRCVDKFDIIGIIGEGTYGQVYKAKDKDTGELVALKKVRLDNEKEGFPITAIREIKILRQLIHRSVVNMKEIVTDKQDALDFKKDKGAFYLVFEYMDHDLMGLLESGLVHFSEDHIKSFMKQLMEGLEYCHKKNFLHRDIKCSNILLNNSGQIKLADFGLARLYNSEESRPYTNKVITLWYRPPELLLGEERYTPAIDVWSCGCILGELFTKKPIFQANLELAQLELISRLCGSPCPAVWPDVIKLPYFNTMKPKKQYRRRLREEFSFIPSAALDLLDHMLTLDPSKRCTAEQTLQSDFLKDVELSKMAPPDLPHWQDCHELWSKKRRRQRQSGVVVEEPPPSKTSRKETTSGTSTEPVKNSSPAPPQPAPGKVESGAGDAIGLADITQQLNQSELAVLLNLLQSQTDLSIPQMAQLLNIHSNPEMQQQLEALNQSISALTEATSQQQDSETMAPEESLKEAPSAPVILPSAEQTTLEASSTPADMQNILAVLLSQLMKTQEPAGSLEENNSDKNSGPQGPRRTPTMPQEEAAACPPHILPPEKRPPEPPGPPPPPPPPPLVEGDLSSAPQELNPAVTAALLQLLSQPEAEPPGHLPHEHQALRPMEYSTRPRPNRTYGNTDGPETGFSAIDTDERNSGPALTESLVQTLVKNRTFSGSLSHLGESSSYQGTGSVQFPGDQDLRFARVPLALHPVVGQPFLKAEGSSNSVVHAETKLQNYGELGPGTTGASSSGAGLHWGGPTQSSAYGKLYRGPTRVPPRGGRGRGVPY
UniProt Q9NRR3: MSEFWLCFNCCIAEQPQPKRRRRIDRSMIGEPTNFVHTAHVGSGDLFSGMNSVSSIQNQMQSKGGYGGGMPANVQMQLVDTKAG
UniProt Q9UPN4: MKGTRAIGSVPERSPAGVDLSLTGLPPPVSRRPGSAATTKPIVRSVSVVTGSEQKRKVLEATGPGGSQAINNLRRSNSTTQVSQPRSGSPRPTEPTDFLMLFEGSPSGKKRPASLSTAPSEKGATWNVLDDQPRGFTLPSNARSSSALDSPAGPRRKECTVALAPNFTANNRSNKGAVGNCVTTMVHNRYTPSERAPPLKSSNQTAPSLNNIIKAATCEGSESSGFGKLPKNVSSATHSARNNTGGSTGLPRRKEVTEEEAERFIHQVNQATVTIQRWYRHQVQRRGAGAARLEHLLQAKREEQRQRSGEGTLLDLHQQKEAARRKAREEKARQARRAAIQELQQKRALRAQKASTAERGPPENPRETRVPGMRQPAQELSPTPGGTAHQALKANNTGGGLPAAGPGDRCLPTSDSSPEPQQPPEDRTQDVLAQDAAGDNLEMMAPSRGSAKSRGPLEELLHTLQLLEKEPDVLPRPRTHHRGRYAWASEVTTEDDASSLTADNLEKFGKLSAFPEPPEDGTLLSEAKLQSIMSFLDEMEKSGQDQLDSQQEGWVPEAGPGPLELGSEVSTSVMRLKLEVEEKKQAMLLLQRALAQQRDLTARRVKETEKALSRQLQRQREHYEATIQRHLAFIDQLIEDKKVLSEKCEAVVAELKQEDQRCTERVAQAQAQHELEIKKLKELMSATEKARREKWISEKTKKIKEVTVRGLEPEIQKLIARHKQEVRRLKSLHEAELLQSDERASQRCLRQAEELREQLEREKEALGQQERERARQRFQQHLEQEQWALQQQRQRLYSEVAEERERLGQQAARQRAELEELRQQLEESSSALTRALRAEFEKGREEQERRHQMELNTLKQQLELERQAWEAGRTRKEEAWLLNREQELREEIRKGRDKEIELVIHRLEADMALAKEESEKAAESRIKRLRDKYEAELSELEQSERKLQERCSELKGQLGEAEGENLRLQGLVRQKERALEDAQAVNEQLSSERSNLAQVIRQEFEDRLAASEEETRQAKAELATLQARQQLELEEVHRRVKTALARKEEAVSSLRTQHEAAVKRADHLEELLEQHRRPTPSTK
UniProt Q00535, whole entry, looked up: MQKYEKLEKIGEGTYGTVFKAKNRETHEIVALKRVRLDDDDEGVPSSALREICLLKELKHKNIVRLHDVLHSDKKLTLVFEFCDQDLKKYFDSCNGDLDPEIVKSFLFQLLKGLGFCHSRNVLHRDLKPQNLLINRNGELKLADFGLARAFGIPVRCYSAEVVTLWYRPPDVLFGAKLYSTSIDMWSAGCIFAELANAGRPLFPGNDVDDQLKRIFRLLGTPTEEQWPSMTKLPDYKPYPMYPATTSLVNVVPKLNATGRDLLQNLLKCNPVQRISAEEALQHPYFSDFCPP
UniProt Q96JB5: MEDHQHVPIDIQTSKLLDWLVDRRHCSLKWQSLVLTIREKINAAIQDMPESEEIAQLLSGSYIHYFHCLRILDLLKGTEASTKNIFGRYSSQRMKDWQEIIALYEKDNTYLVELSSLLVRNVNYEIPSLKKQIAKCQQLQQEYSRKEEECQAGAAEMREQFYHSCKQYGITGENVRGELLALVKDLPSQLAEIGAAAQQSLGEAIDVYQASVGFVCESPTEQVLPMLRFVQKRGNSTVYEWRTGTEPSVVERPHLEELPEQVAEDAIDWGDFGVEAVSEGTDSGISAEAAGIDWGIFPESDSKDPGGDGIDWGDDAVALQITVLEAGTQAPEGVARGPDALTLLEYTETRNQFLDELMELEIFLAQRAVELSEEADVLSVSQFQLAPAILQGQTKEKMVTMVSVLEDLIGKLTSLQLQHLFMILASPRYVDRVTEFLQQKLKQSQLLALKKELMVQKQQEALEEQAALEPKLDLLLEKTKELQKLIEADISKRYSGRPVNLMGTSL

Assays:
Test in all cases: log2 fold change, soluble protein after heating vs DMSO (PISA); higher = thermal stabilisation; K562 lysate, 10 uM; active = over 0.2 and 3.5 SD of the protein, either way, in both replicates (recomputed)
alvocidib = compound: CN1CC[C@H](c2c(O)cc(O)c3c(=O)cc(-c4ccccc4Cl)oc23)[C@H](O)C1 [alvocidib]
Outline: (§1)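 Soluble protein was defined as the supernatant remaining after 21,000xg for 90 min, following pooling of heated aliquots and adjustment to 0.5% NP-40 at 4°C. Before that, crude K562 extract at 1 mg/mL protein in PBS pH 7.4 with 1 mM MgCl2 was treated with 10 μM compound for 30 min and heated for 3 min across 48°C-58°C. Quantification used TMTpro 16plex LC-MS/MS with channel sums equalised, and values are log-two fold changes in thermal stability relative to solvent controls from duplicates.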

Tubastatin A = compound: CN1CCc2c(c3ccccc3n2Cc2ccc(C(=O)NO)cc2)C1 [Tubastatin A]
Outline: as §1

[1] = compound: CNC(=O)C1=CC=CC=C1NC2=NC(=NC=C2Cl)NC3=C(C=C(C=C3)N4CCOCC4)OC
Outline: as §1

defactinib = compound: CNC(=O)c1ccc(Nc2ncc(C(F)(F)F)c(NCc3nccnc3N(C)S(C)(=O)=O)n2)cc1 [defactinib]
Outline: as §1

[2] = compound: CNc1nc(-c2ccc3c(N)n[nH]c3c2)cc(N2C[C@@H](C(=O)NC3CCCCC3)CC[C@H]2C)n1
Outline: as §1

encorafenib = compound: COC(=O)N[C@@H](C)CNc1nccc(-c2cn(C(C)C)nc2-c2cc(Cl)cc(NS(C)(=O)=O)c2F)n1 [encorafenib]
Outline: as §1

[3] = compound: COC(=O)[C@H](CCSC)NC(=O)C1=C(C=C(C=C1)NC[C@H](CS)N)C2=CC=CC=C2
Outline: as §1

alisertib = compound: COc1cc(Nc2ncc3c(n2)-c2ccc(Cl)cc2C(c2c(F)cccc2OC)=NC3)ccc1C(=O)O [alisertib]
Outline: as §1

[4] = compound: COc1cc2nc(-c3cc(F)ccc3O)nc(N[C@@H]3CNC[C@H]3C(C)(C)O)c2cc1OC
Outline: as §1

gefitinib = compound: COc1cc2ncnc(Nc3ccc(F)c(Cl)c3)c2cc1OCCCN1CCOCC1 [gefitinib]
Outline: as §1

lapatinib = compound: CS(=O)(=O)CCNCc1ccc(-c2ccc3ncnc(Nc4ccc(OCc5cccc(F)c5)c(Cl)c4)c3c2)o1 [lapatinib]
Outline: as §1

pictilisib = compound: CS(=O)(=O)N1CCN(Cc2cc3nc(-c4cccc5[nH]ncc45)nc(N4CCOCC4)c3s2)CC1 [pictilisib]
Outline: as §1

crizotinib = compound: C[C@@H](Oc1cc(-c2cnn(C3CCNCC3)c2)cnc1N)c1c(Cl)ccc(F)c1Cl [crizotinib]
Outline: as §1

[5] = compound: C[C@H](C1=CC=C(C=C1)C(=O)NC2=C3C=CNC3=NC=C2)N
Outline: as §1

duvelisib = compound: C[C@H](Nc1ncnc2nc[nH]c12)c1cc2cccc(Cl)c2c(=O)n1-c1ccccc1 [duvelisib]
Outline: as §1

gandotinib = compound: Cc1cc(Nc2cc(CN3CCOCC3)c3nc(C)c(Cc4ccc(Cl)cc4F)n3n2)n[nH]1 [gandotinib]
Outline: as §1

tozasertib = compound: Cc1cc(Nc2cc(N3CCN(C)CC3)nc(Sc3ccc(NC(=O)C4CC4)cc3)n2)n[nH]1 [tozasertib]
Outline: as §1

doramapimod = compound: Cc1ccc(-n2nc(C(C)(C)C)cc2NC(=O)Nc2ccc(OCCN3CCOCC3)c3ccccc23)cc1 [doramapimod]
Outline: as §1

bafetinib = compound: Cc1ccc(NC(=O)c2ccc(CN3CC[C@H](N(C)C)C3)c(C(F)(F)F)c2)cc1Nc1nccc(-c2cncnc2)n1 [bafetinib]
Outline: as §1

[6] = compound: Cc1cccc(CC(=O)N2CCc3c2ccc(-c2cn(C)c4ncnc(N)c24)c3F)n1
Outline: as §1

Row | Target | log2 fold change (alvocidib) | log2 fold change (Tubastatin A) | log2 fold change [1] | log2 fold change (defactinib) | log2 fold change [2] | log2 fold change (encorafenib) | log2 fold change [3] | log2 fold change (alisertib) | log2 fold change [4] | log2 fold change (gefitinib) | log2 fold change (lapatinib) | log2 fold change (pictilisib) | log2 fold change (crizotinib) | log2 fold change [5] | log2 fold change (duvelisib) | log2 fold change (gandotinib) | log2 fold change (tozasertib) | log2 fold change (doramapimod) | log2 fold change (bafetinib) | log2 fold change [6]
1 | CDC7 (UniProt O00311) | inactive: -0.081 | inactive: -0.112 | inactive: 0.077 | inactive: 0.007 | inactive: 0.042 | inactive: 0.011 | inactive: 0.078 | inactive: -0.059 | inactive: -0.04 | inactive: -0.036 | inactive: 0.112 | inactive: -0.067 | inactive: -0.024 | active: -0.335 | inactive: -0.007 | inactive: 0.047 | inactive: -0.01 | inactive: 0.06 | inactive: 0.009 | inactive: 0.087
2 | CFAP36 (UniProt Q96G28) | inactive: 0.019 | inactive: 0.065 | inactive: 0.027 | inactive: 0.016 | inactive: 0.033 | inactive: 0.017 | inactive: -0.004 | inactive: -0.032 | inactive: 0.05 | inactive: 0.017 | inactive: -0.015 | inactive: -0.025 | inactive: 0.05 | inactive: 0.071 | inactive: 0.036 | inactive: -0.022 | inactive: -0.013 | inactive: -0.06 | inactive: 0.015 | inactive: -0.042
3 | CFAP20 (UniProt Q9Y6A4) | inactive: -0.123 | inactive: -0.012 | inactive: 0.009 | inactive: -0.015 | inactive: 0.051 | inactive: 0.064 | inactive: -0.016 | inactive: -0.01 | inactive: -0.004 | inactive: 0.012 | inactive: -0.012 | inactive: -0.013 | inactive: -0.011 | inactive: -0.198 | inactive: -0.009 | inactive: 0.068 | inactive: -0.03 | inactive: 0.019 | inactive: -0.075 | inactive: 0.064
4 | CEP120 (UniProt Q8N960) | inactive: -0.046 | inactive: 0.098 | inactive: -0.096 | inactive: -0.025 | inactive: 0.273 | inactive: 0.065 | inactive: -0.117 | inactive: 0.141 | inactive: 0.038 | inactive: 0.119 | inactive: -0.076 | inactive: -0.007 | inactive: -0.034 | inactive: -0.105 | inactive: 0.005 | inactive: 0.016 | inactive: -0.096 | inactive: 0.107 | inactive: -0.257 | inactive: 0.129
5 | CDKN2C (UniProt P42773) | inactive: -0.041 | inactive: 0.13 | inactive: 0.054 | inactive: 0.146 | inactive: -0.04 | inactive: 0.063 | inactive: -0.047 | inactive: 0.072 | inactive: -0.029 | inactive: -0.094 | inactive: 0.078 | inactive: 0.004 | inactive: -0.02 | inactive: 0.073 | inactive: 0.053 | inactive: -0.188 | inactive: 0.136 | inactive: 0.02 | inactive: -0.033 | inactive: -0.095
6 | CDYL (UniProt Q9Y232) | inactive: -0.029 | inactive: 0.033 | inactive: -0.056 | inactive: 0.033 | inactive: -0.05 | inactive: 0.022 | inactive: -0.132 | inactive: 0.05 | inactive: -0.01 | inactive: -0.079 | inactive: 0.088 | inactive: 0.018 | inactive: -0.03 | inactive: -0.014 | inactive: -0.006 | inactive: -0.005 | inactive: 0.045 | inactive: -0.01 | inactive: -0.013 | inactive: 0.031
7 | CERT isoform 3 (UniProt Q9Y5P4) | inactive: -0.026 | inactive: -0.003 | inactive: 0.005 | inactive: -0.004 | inactive: 0 | inactive: 0.02 | inactive: -0.019 | inactive: -0.013 | inactive: 0.008 | inactive: 0.036 | inactive: -0.017 | inactive: -0.008 | inactive: 0.015 | inactive: -0.039 | inactive: -0.011 | inactive: -0.068 | inactive: 0.003 | inactive: 0.026 | inactive: -0.015 | inactive: 0.049
8 | CDK1 (UniProt P06493) | inactive: 0.036 | inactive: -0.032 | inactive: -0.017 | inactive: -0.035 | inactive: -0.021 | inactive: 0.011 | inactive: 0.036 | inactive: 0.002 | active: 0.328 | inactive: -0.03 | inactive: -0.012 | inactive: -0.021 | inactive: -0.041 | inactive: -0.018 | inactive: 0.031 | inactive: -0.224 | inactive: 0.001 | inactive: 0.019 | inactive: -0.016 | inactive: -0.022
9 | CDC37 (UniProt Q16543) | inactive: 0.02 | inactive: 0.06 | inactive: 0.008 | inactive: -0.012 | inactive: 0.004 | inactive: -0.021 | inactive: -0.039 | inactive: 0.001 | inactive: -0.004 | inactive: 0.006 | inactive: 0.012 | inactive: 0.01 | inactive: 0.05 | inactive: 0.019 | inactive: -0.013 | inactive: 0.001 | inactive: -0.01 | inactive: -0.042 | inactive: 0.004 | inactive: -0.07
10 | CDK12 (UniProt Q9NYV4) | inactive: 0.059 | inactive: 0.008 | inactive: -0.038 | inactive: 0.102 | inactive: 0.079 | inactive: 0.039 | inactive: 0.007 | inactive: 0.009 | inactive: -0.024 | inactive: 0.035 | inactive: -0.022 | inactive: 0.003 | inactive: -0.019 | inactive: -0.014 | inactive: -0.012 | inactive: -0.191 | inactive: -0.056 | inactive: 0.032 | inactive: -0.031 | inactive: 0.031
11 | CDC42SE2 (UniProt Q9NRR3) | inactive: -0.055 | inactive: 0.065 | inactive: 0.04 | inactive: 0.003 | inactive: 0.019 | inactive: 0.022 | inactive: 0.026 | inactive: 0.096 | inactive: -0.094 | inactive: -0.14 | inactive: 0.011 | inactive: 0.05 | inactive: -0.021 | inactive: 0.105 | inactive: 0.031 | inactive: -0.067 | inactive: -0.051 | inactive: -0.029 | inactive: 0.043 | inactive: 0.019
12 | CDC123 (UniProt O75794) | inactive: 0.019 | inactive: -0.125 | inactive: 0.009 | inactive: 0.007 | inactive: -0.03 | inactive: 0.018 | inactive: 0.136 | inactive: -0.004 | inactive: -0.023 | inactive: -0.001 | inactive: 0.016 | inactive: -0.011 | inactive: -0.012 | inactive: 0.032 | inactive: 0.02 | active: 0.335 | inactive: -0.022 | inactive: -0.032 | inactive: -0.049 | inactive: -0.048
13 | CDC42BPA isoform 6 (UniProt Q5VT25) | inactive: -0.099 | inactive: -0.13 | inactive: -0.015 | inactive: -0.002 | inactive: -0.065 | inactive: 0.017 | inactive: 0.093 | inactive: -0.005 | inactive: -0.019 | inactive: -0.004 | inactive: -0.029 | inactive: -0.041 | inactive: -0.061 | inactive: 0.024 | inactive: -0.007 | inactive: -0.05 | inactive: 0.032 | inactive: 0.075 | inactive: -0.056 | inactive: 0.03
14 | CEP131 (UniProt Q9UPN4) | inactive: -0.022 | inactive: 0.005 | inactive: -0.133 | inactive: 0.005 | inactive: 0.071 | inactive: 0.127 | inactive: -0.061 | inactive: -0.033 | inactive: -0.035 | inactive: 0.019 | inactive: 0.002 | inactive: 0.045 | inactive: -0.018 | inactive: -0.049 | inactive: -0.118 | inactive: 0.09 | inactive: -0.019 | inactive: -0.013 | inactive: -0.065 | inactive: 0.103
15 | CDK5 (UniProt Q00535) | active: 1.07 | inactive: -0.058 | inactive: 0.211 | active: 0.654 | inactive: -0.032 | inactive: 0.024 | inactive: -0.1 | inactive: -0.032 | inactive: 0.03 | inactive: -0.027 | inactive: -0.094 | inactive: 0.095 | inactive: -0.031 | inactive: -0.024 | inactive: 0.03 | inactive: 0.451 | inactive: 0.014 | inactive: 0.423 | inactive: -0.008 | inactive: -0.023
16 | CDK5RAP3 isoform 4 (UniProt Q96JB5) | inactive: -0.118 | inactive: 0.038 | inactive: -0.007 | inactive: -0.021 | inactive: 0.021 | inactive: 0.007 | inactive: 0.094 | inactive: 0.006 | inactive: 0.026 | inactive: -0.024 | inactive: -0.013 | inactive: -0.028 | inactive: -0.054 | active: -0.231 | inactive: -0.002 | inactive: 0.173 | inactive: 0.019 | inactive: 0.017 | inactive: -0.02 | inactive: 0.211

Quoted at random: two entries already listed.
Row | Target | log2 fold change (alvocidib) | log2 fold change (Tubastatin A) | log2 fold change [1] | log2 fold change (defactinib) | log2 fold change [2] | log2 fold change (encorafenib) | log2 fold change [3] | log2 fold change (alisertib) | log2 fold change [4] | log2 fold change (gefitinib) | log2 fold change (lapatinib) | log2 fold change (pictilisib) | log2 fold change (crizotinib) | log2 fold change [5] | log2 fold change (duvelisib) | log2 fold change (gandotinib) | log2 fold change (tozasertib) | log2 fold change (doramapimod) | log2 fold change (bafetinib) | log2 fold change [6]
10 | CDK12 (UniProt Q9NYV4) | inactive: 0.059 | inactive: 0.008 | inactive: -0.038 | inactive: 0.102 | inactive: 0.079 | inactive: 0.039 | inactive: 0.007 | inactive: 0.009 | inactive: -0.024 | inactive: 0.035 | inactive: -0.022 | inactive: 0.003 | inactive: -0.019 | inactive: -0.014 | inactive: -0.012 | inactive: -0.191 | inactive: -0.056 | inactive: 0.032 | inactive: -0.031 | inactive: 0.031
13 | CDC42BPA isoform 6 (UniProt Q5VT25) | inactive: -0.099 | inactive: -0.13 | inactive: -0.015 | inactive: -0.002 | inactive: -0.065 | inactive: 0.017 | inactive: 0.093 | inactive: -0.005 | inactive: -0.019 | inactive: -0.004 | inactive: -0.029 | inactive: -0.041 | inactive: -0.061 | inactive: 0.024 | inactive: -0.007 | inactive: -0.05 | inactive: 0.032 | inactive: 0.075 | inactive: -0.056 | inactive: 0.03
